From article PMC11231755
These are yes or no findings as the source states them, for the method shown. A result given as binding can be weak or reduced; the word gives no strength.

Legend:
[1] = target: T1, T25-ORF6^O4 (Klebsiella pneumoniae) (UniProt Q767E1); assay: two-hybrid; bacterial adenylate cyclase two-hybrid (T18 and T25 fusions) in E. coli BTH101, 0.5 mM IPTG, 30 °C; β-galactosidase activity in microplates and colour on agar plates
T1 sequence: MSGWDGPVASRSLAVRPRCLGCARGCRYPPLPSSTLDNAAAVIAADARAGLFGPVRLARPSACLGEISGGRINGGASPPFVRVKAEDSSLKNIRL

[2] = target: T2, ORF6^O7-T25 (Klebsiella pneumoniae) (UniProt Q767E1); assay: as above
T2 sequence: T1 sequence

| binding [2] | Substance | binding [1] |
| --- | --- | --- |
|  | ORF5^O4-T18 (Klebsiella pneumoniae) (enzyme) | binds |
| binds | ORF7^O7-T18 (Klebsiella pneumoniae) (enzyme) |  |
